In paper PMC7819943, “Rice protein-binding microarrays: a tool to detect cis-acting elements near promoter regions in rice” one finds binding signal data, which are given here for 54 sequences.

The list shows a part of the results.

The experiment deals with T1, OsSMF1 (Oryza sativa, UniProt Q6ZLB0 1-436).
T1 sequence: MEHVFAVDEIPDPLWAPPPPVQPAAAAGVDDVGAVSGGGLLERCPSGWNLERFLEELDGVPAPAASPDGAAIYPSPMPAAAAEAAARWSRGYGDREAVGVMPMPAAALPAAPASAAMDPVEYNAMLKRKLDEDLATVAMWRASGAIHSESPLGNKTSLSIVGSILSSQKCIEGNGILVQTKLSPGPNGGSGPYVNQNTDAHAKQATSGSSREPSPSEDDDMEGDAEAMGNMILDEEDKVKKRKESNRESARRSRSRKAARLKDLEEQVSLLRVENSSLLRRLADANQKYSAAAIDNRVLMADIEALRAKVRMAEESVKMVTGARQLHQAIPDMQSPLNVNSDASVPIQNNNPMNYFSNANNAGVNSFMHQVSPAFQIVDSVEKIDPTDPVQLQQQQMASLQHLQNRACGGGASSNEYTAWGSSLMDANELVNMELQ
Briefly: protein-binding microarray (RPBM); PBS, 2% BSA, 51.3 ng/ul salmon testes DNA, 50 uM zinc acetate, 200 nM TF, 25 C, 1 h; high values mean tight binding. The following applies: protein: recombinant; tags: N-terminal polyhistidine and DsRed monomer fusion (pET32a); chain copies: 2; label: CyDye5-dUTP incorporated in the synthesized complementary strand; 3' TTTTT single-stranded linker to array surface; dsDNA, one strand shown. In outline: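 In PBS with 2% BSA, salmon testes DNA and 50 µM zinc acetate, 200 nM protein was incubated on a custom Agilent array at 25 °C for 1 h and then washed off. The array had been made double-stranded by primer extension with Cy5-dUTP and blocked with 2% BSA. The proteins were transcription factors fused N-terminally to polyhistidine and DsRed, expressed in E. coli BL21-CodonPlus and purified on Ni–NTA. The binding signal is per-feature fluorescence intensity (arbitrary units) from an Axon 4000B scanner.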
On to “GATACAATCCGTGTAGTCTTTGTCATTTCCATATAGAACTCGGAGTCACCTAGTGCAG”, for which the binding signal was 3800 fluorescence intensity (a.u.). For “GCCCTCCTCGGCGTACCCCTCCCCTGCACCTGCGCCCGCCCGGAGTCACCTAGTGCAG” the value was 3140 fluorescence intensity (a.u.); for “AACCCTCAATGATGACAATATATCTTACTTAAAGAAAAGGCGGAGTCACCTAGTGCAG”, 3380 fluorescence intensity (a.u.); for “CCGCCGCCGCGGCCGCCGCCGCGCTCACCGGCAGGAGCGACGGAGTCACCTAGTGCAG”, 3390 fluorescence intensity (a.u.). For “CCCACACTGCAAACACCTTAATTAGTACTACTACTAGTCACGGAGTCACCTAGTGCAG” the value was 3430 fluorescence intensity (a.u.). For “TGTGGGCCCGGAATAGGTGGGACCCACACGTCAGTGAAACCGGAGTCACCTAGTGCAG” the value was 6630 fluorescence intensity (a.u.); for “AATTTCGAACTTAATTAGCACGTGGATTAATTAGTTGGCACGGAGTCACCTAGTGCAG”, 5150 fluorescence intensity (a.u.); for “TCTGCCACTTTCCGCATGCTGTATCCACGTCACCTCCAATCGGAGTCACCTAGTGCAG”, 21100 fluorescence intensity (a.u.). Turning to “GGCCTGCAGCGGGAGCCGATTGTTCTGTGACGCGTGGAGGCGGAGTCACCTAGTGCAG”, the binding signal was 3170 fluorescence intensity (a.u.).

For the sequence “AGTTCAGATCTTTCTCTCATTTACAAATAACCTAAGCTGCCGGAGTCACCTAGTGCAG”, the binding signal was 4080 fluorescence intensity (a.u.).

Turning to “CAGGTAACCATACTACTGAACAGAACTTTATGACCATTTTCGGAGTCACCTAGTGCAG”, the binding signal is 3990 fluorescence intensity (a.u.). The result for “TGCAGACCATTTTGTGCGTGCGTGCGTGTGGCTAGCCCGTCGGAGTCACCTAGTGCAG” reads 4470 fluorescence intensity (a.u.). The result for “ACACTTAATCCATGTGATATCCTTAACACTTAATCCATGTCGGAGTCACCTAGTGCAG” reads 3810 fluorescence intensity (a.u.); that for “GCTATAAATCTGTAGTCTTCTCTCTCATCTTTTATCTTCTCGGAGTCACCTAGTGCAG”, 19000 fluorescence intensity (a.u.); that for “GTGGGGCAGGATCAAGGACAAGTATCGGCGGATGGTGCCGCGGAGTCACCTAGTGCAG”, 23500 fluorescence intensity (a.u.). For “AGCTCATGACCAGCGCGCACCGCCTTGTCAGCCTGTGTTTCGGAGTCACCTAGTGCAG” the value was 5420 fluorescence intensity (a.u.); for “CTTTAACATCCGTCCCAGAAGAATAACACTGCTCGCAAAACGGAGTCACCTAGTGCAG”, 36100 fluorescence intensity (a.u.); for “ACTGGCTCCACACGACGTCAGCGACGGCTGGTTCAGCGAGCGGAGTCACCTAGTGCAG”, 4300 fluorescence intensity (a.u.). With “GGGTCGTCGTCATCGCCGTCTTCACTCTTCACGCCACACTCGGAGTCACCTAGTGCAG”, the binding signal was 5020 fluorescence intensity (a.u.). For “TTCAAACAAGTGAATATCATATATTTTAATAAGCAAACAACGGAGTCACCTAGTGCAG” the value was 32300 fluorescence intensity (a.u.); for “AGTTGGTGAACTATAAGGTAGATAGATGTAAAAGAGAAACCGGAGTCACCTAGTGCAG”, 31800 fluorescence intensity (a.u.); for “CGCCCAGGACGTCATGCCGGAGCTGGCCATGGTCACCGCGCGGAGTCACCTAGTGCAG”, 4070 fluorescence intensity (a.u.). For “TTTCAGTTAAGTCGGTGCGGTACAAACAGCTAAGCACGTACGGAGTCACCTAGTGCAG” the value was 3220 fluorescence intensity (a.u.); for “ACTGAAAAGTTGCGTGTGTATGACAGGTTGATGTGATAGACGGAGTCACCTAGTGCAG”, 3820 fluorescence intensity (a.u.); for “TCTGCAATTTGCACGTGGCACTATGACCAAGTGTGATGAGCGGAGTCACCTAGTGCAG”, 10600 fluorescence intensity (a.u.). “TATGTTGTAATATTTGCACGTGTGAGCTTGCTTGTTAAGTCGGAGTCACCTAGTGCAG”: the binding signal is 3980 fluorescence intensity (a.u.).

On to “TTTGCACAAGGTAGTAGTGTGTGGCAGCAAAGGATCCGAGCGGAGTCACCTAGTGCAG”, for which the binding signal was 3200 fluorescence intensity (a.u.). For “GCTCAGAGTCAGACGCGTCGCCTTGCGTGGCCCAGTTGCCCGGAGTCACCTAGTGCAG”, the binding signal was 5490 fluorescence intensity (a.u.). For “TATTTACGTTATTAGTTTCAGATATATGACTCGACGATCCCGGAGTCACCTAGTGCAG” the value was 4750 fluorescence intensity (a.u.); for “CAGGTGGGCCCTGCTCTCCCACGTCAGCATCACTCCAAGTCGGAGTCACCTAGTGCAG”, 14900 fluorescence intensity (a.u.); for “TTCTACCTGAGAAGAGAGCCCAGTTCTCCGCTACAATTCCCGGAGTCACCTAGTGCAG”, 6170 fluorescence intensity (a.u.). For “TACGGTGCTACTGCTGTGTCAGTTTGTCTGGTGTTTTCGGCGGAGTCACCTAGTGCAG” the value was 3480 fluorescence intensity (a.u.). For “GAAGAAAGTGGCGAGTTGTCACCAGCAGTAGCTTCAACGACGGAGTCACCTAGTGCAG” the value was 3960 fluorescence intensity (a.u.). As to “TCCCTTGATCCGATCACGAATGCTTAGGTGGACTTTGTTTCGGAGTCACCTAGTGCAG”, the binding signal is 4460 fluorescence intensity (a.u.). In the case of “TGATGTTACAGTAAACTTTTGATAATTATGGATTAATTAGCGGAGTCACCTAGTGCAG”, the binding signal is 3670 fluorescence intensity (a.u.). On to “CCGTCGCGGGGCCCGGGCGTCCGACGTGGCCGACCAGGCGCGGAGTCACCTAGTGCAG”, for which the binding signal was 9350 fluorescence intensity (a.u.). The result for “TGGCGTCCAGCACGAACTCCGCCTCCCGCGTCGACGTGTACGGAGTCACCTAGTGCAG” reads 6920 fluorescence intensity (a.u.); that for “ATTGCCGCCATTCAGGAAGACATCGTCGGATGCGGTGGCACGGAGTCACCTAGTGCAG”, 4160 fluorescence intensity (a.u.). For “TGTGGATAAGGTTGGAGGGTATTTCGGTCACTACGAAAATCGGAGTCACCTAGTGCAG” the value was 3190 fluorescence intensity (a.u.); for “AAACATGGGCTCGGCCCAAGCCACGTCATACGAGCACGGACGGAGTCACCTAGTGCAG”, 18100 fluorescence intensity (a.u.). Take “GGCTAGCTCTCATGTATGATGTCATTGAGAAGATCGACTACGGAGTCACCTAGTGCAG”: the binding signal is 5340 fluorescence intensity (a.u.).

As for “AATTAAAATGTTCGTACAGTACACGACGATTCCCACCTTGCGGAGTCACCTAGTGCAG”, the binding signal is 4380 fluorescence intensity (a.u.). The result for “AGCCGCACATCATCTCGCTAACGTCATCCTTTGTGCCGAACGGAGTCACCTAGTGCAG” reads 6700 fluorescence intensity (a.u.); that for “AAAGAAATAGCAGACTGCTGACTACACTTTATCTGAGCATCGGAGTCACCTAGTGCAG”, 3810 fluorescence intensity (a.u.); that for “CGCCATGCTTTGTCCTTGGTGTCACCACACTGTCCCTCCTCGGAGTCACCTAGTGCAG”, 3600 fluorescence intensity (a.u.). The result for “CCGTTACATTGTTCCAATTTTAATTAAACTTCCAATTTTACGGAGTCACCTAGTGCAG” reads 30600 fluorescence intensity (a.u.); that for “CGGCGGCGGCGACCGCGGGTAGGGTGGGTGGCGCGGGCCGCGGAGTCACCTAGTGCAG”, 3640 fluorescence intensity (a.u.); that for “GGCAAGTTGTCGTTTATTGACCTTGCTGGCAGTGAGCGTGCGGAGTCACCTAGTGCAG”, 3780 fluorescence intensity (a.u.). The result for “CAGATAGAAGAGAGGAAGCACGCACACACTTGTGAGTTGTCGGAGTCACCTAGTGCAG” reads 3620 fluorescence intensity (a.u.); that for “GAGGACTTGGAAACGACGCTGACGAGTTTCACCAGGATGACGGAGTCACCTAGTGCAG”, 3660 fluorescence intensity (a.u.); that for “TAGGAGTGTTTTCGCTGTGTACACGCCGACGTGGGTCCATCGGAGTCACCTAGTGCAG”, 3620 fluorescence intensity (a.u.). “CGGTGGGCCCAGCTGTCAGCGAACGTGGGAGTTGGCACAGCGGAGTCACCTAGTGCAG”: the binding signal was 5000 fluorescence intensity (a.u.). On to “TGTATGCAGCAATATCCACCGGCCCCACGGAACGGGCGGTCGGAGTCACCTAGTGCAG”, for which the binding signal was 22800 fluorescence intensity (a.u.).

For the sequence “AGAACACCGGTCGTTTTGCTCGTGAGCTGTCTCGGGGTAGCGGAGTCACCTAGTGCAG”, the binding signal was 3150 fluorescence intensity (a.u.).
